Measurements: US10202443
These are yes or no findings as the source states them, for the method shown. In cells and extracts the contact can be indirect. Some entries that bind do so weakly or less than the wild type.

The chains behind the UniProt entries cited, without tags or fusion partners.
UniProt Q13148: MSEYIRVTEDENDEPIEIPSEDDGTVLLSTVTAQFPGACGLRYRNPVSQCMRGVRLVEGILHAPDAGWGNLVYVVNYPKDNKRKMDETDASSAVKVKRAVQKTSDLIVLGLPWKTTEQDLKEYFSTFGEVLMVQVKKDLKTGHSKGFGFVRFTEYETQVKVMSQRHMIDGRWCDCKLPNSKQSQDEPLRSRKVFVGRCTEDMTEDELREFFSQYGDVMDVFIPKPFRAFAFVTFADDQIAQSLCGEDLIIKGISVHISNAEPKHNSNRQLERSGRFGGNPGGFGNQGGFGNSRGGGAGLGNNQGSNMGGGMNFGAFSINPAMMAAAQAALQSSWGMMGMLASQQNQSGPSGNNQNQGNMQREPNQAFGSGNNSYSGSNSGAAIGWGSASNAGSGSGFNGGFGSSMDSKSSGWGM

Key:
[1] = target: cellular TDP-43 of HEK293 cells (UniProt Q13148); assay: co-immunoprecipitation, Hek293 cells transfected with the scFv plasmid
[2] = target: cellular TDP-43 of HEK293 cells (UniProt Q13148); assay: co-immunoprecipitation from HEK293 lysates with polyclonal anti-TDP-43, myc detection

B1: E6_VH1Vκ9 scFv antibody (scFv)
scFv: LQESGGGLVQPGGSMKLSCVASGFTSSNYWLNWVRQSPERGLEWVAEIRLKSNNYATNYAESVKGRFTISRDDSKSSVYLQVNNLRAEDTGIYYCTRSTARATPYYFDYWGQGTTVTVSSGGGGSGGGGSGGGGSDIELTQSPSSLAVSAGEKVTMSCKSSQSLLNSRARKNFLTWYQQKPGQSPKLLIYWASTRESGVPDRFTGSGSGTDFTLTISSVQAEDLAVYYCKQSYNLYTFGGGTKLEEQKLISEEDLN
- binding [1]: binds
- binding [2]: binds

B2: E6_VH7Vκ9 scFv antibody (scFv)
scFv: LQQSGGGLVQPGGSMKLSCVASGFTSSNYWLNWVRQSPERGLEWVAEIRLKSNNYATNYAESVKGRFTISRDDSKSSVYLQVNNLRAEDTGIYYCTRSTARATPYYFDYWGQGTTVTVSSGGGGSGGGGSGGGGSDIELTQSPSSLAVSAGEKVTMSCKSSQSLLNSRARKNFLTWYQQKPGQSPKLLIYWASTRESGVPDRFTGSGSGTDFTLTISSVQAEDLAVYYCKQSYNLYTFGGGTKLEEQKLISEEDLN
- binding [2]: binds
